Starred links: 1 amine or outer side, 2 acyl side, 3 side chain; linkers in the order of their positions; H or OH if unused. Positions of bridges follow the written chain, without caps; N, C: chain ends. Non-standard residues stand in square brackets, D forms with d. Residues, ends and D or L forms follow the SMILES beside them. Chains are numbered I, II in the order given. Actinocin(9to1) = Cc1c2oc3c(C)ccc(C(=O)[*:1])c3nc-2c(C(=O)[*:2])c(N)c1=O; NMeV = CN[C@H](C(=O)O)C(C)C; Sar = CNCC(=O)O
What was measured:
[1] = tested on: HeLa cells; assay: XTT cytotoxicity assay in HeLa cells; conditions: IC50 in Vero cell line / IC50 in HeLa
Procedure: (§1) HeLa, U937, and Vero cell lines were maintained in culture flasks containing Eagle’s Minimum Essential Medium supplemented with 10% heat-inactivated FBS and 1% antibiotics (100 U/mL penicillin, 100 μg/mL streptomycin, and 250 μg/mL fungizone). The cells were grown at 37 °C in a humidified incubator set at 5% CO2. Cells were subcultured after they formed a monolayer on the flask. The cells were detached by treating them with trypsin-EDTA (0.25% trypsin containing 0.01% EDTA) for 10 minutes and then by adding complete medium to inhibit the reaction. Cytotoxicity was measured by the XTT method using the Cell Proliferation Kit II. The method described by Zheng et al. was used to perform the assay. Cells were seeded (100 μL) in a 96-well microtiter plate (concentration 1 × 10^5 cells/mL). The plate was then incubated for 24 h at 37 °C and 5% CO2 to allow the cells to attach to the bottom of the wells. The compounds were each prepared to a stock solution of 20 mg/mL and added to the microtiter plate. Serial dilutions were made to range from a concentration of 100 μg/mL–0.7 μg/mL for each compound. The microtiter plate was incubated for a further 72 h. […] After the incubation the absorbance of the color complex was read at 490 nm with a reference wavelength set at 690 nm. […] The results were analyzed using the GraphPad Prism 4 program.

[2] = tested on: U937 cells; assay: XTT cytotoxicity assay in U937 cells; conditions: IC50 in Vero cell line / IC50 in U937
Procedure: as §1

In the case of `Cc1c2oc3c(C)ccc(C(=O)N[C@@H]4C(=O)N[C@H](C(C)C)C(=O)N5CCC[C@H]5C(=O)N(C)CC(=O)N(C)[C@@H](C(C)C)C(=O)O[C@@H]4C)c3nc-2c(C(=O)N[C@@H]2C(=O)N[C@H](C(C)C)C(=O)N3CCC[C@H]3C(=O)N(C)CC(=O)N(C)[C@@H](C(C)C)C(=O)O[C@@H]2C)c(N)c1=O` [Actinomycin D, reference compound] (I: T[dV]P[Sar][NMeV] / II: T[dV]P[Sar][NMeV]; ester I:1-I:C, II:1-II:C; linker I:N-II:N via Actinocin(9to1)), the “SI Values HeLa” value [1] is reported as 1.7 and the “SI Values U937” value [2] is reported as 4.72.
With `CCCCCCCCCCCCCC=CCCC=CC(O)C(CO)NC(=O)CCCCCCCCCCC` (stereo not drawn) [Compound 8, erythro-N-dodecanoyl-docosasphinga-(4E,8E)-dienine] the “SI Values HeLa” value [1] was 2.6.
